This note sets out measurements from doi:10.1101/2022.04.06.487260.

Protein sequences, listed by entry. Tags and fused reporters are not part of them. Lines headed by an entry give the natural chain unless they say otherwise; changes in a name come on top. Chains listed by the source or under a name are the forms on record and can include a tag or linker.
His-tagged Talin F2F3 (206-405, C336S) (Q9Y490, form named): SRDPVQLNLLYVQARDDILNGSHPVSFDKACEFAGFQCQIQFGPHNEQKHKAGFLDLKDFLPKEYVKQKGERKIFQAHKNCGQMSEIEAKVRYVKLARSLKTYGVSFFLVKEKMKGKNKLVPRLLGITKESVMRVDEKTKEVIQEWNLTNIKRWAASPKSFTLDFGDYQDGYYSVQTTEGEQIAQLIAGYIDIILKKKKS

The target in this assay is His-tagged Talin F2F3 (206-405, C336S) (UniProt Q9Y490). In words: pull-down.

Results are given in words; binding and its absence hold for the method and conditions named.

B1: FAT domain of human FAK (892-1052) (domain or fragment, UniProt Q05397 892-1052)
chain: SSPADSYNEGVKLQPQEISPPPTANLDRSNDKVYENVTGLVKAVIEMSSKIQPAPPEEYVPMVKEVGLALRTLLATVDETIPLLPASTHREIEMAQKLLNSDLGELINKMKLAQQYVMTSLQQEYKKQMLTAAHALAVDAKNLLDVIDQARLKMLGQTRPH
B1: the binding entry is “no binding”.
